# In patent publication US20050037949A1, “Mannose binding lectin and uses thereof” (priority 2002, published 2005):
# Some results were stated once for a whole list of compounds, not compound by compound.
# Tested on: C4 P4-P1 substrate
# Assay: MASP activity of purified MBL material in the substrate cleavage assay
# Type: biochemical
# Conditions: determined using the C4 P4-P1 substrate
row,Substance,MASP activity relative to the MBL-MASP complex
1,"MASP-depleted Frac. 5: fraction 5 of purified MASP-depleted MBL from the Example 1 Sephacryl S-300 column, 80 μg/mL",< 10%
2,"MASP-depleted Frac. 3: fraction 3 of purified MASP-depleted MBL from the Example 1 Sephacryl S-300 column, 40 μg/mL",< 10%
